At least one structure is not confirmed: it was looked up by name or label, or the drawing left a doubt.
System: MEFs expressing MyoD
Experiment: Reprogramming of MyoD-expressing MEFs with small molecules (myotubes, proliferative cells, contraction, Pax7 staining)
Assay type: cell-based, mouse
Details: Knockout DMEM, 10% KOSR, 10% FBS, 10 ng/ml bFGF
Source text: A doxycycline (dox) inducible lentiviral system (tetOP-MyoD) was engineered, allowing for inducible and reversible activation of MyoD in target cells. […] The myogenic identity of converted cells was confirmed by immunofluorescence staining for the differentiation marker myosin heavy chain (MyHC), which was absent in uninfected MEFs (FIG. 14C).
MEFs undergoing MyoD-induced lineage conversion were exposed to various small molecules and cytokines in an attempt to induce reprogramming into a proliferative, myogenic progenitor-like cell state in addition to mature myotubes (FIG. 14A, bottom row). Specifically, compounds including the GSK3β inhibitor CHIR99021 (abbreviated as “G”) and the TGF-01 receptor inhibitor RepSox (abbreviated as “R”) were used. In addition, the effect of the cyclic AMP agonist Forskolin (abbreviated as “F”), which reportedly facilitates the transient expansion of satellite cells in vitro was tested. These compounds were added individually or combinatorially to MEFs expressing MyoD and cultured in Knockout DMEM media containing 10% KOSR and 10% FBS and supplemented with 10 ng/ml bFGF, which promotes satellite cell and myoblast growth. […]

## C=C[C@@]1(C)CC(=O)[C@]2(O)[C@@]3(C)[C@@H](O)CCC(C)(C)[C@@H]3[C@H](O)[C@H](OC(C)=O)[C@@]2(C)O1 [F, Forskolin]
  formation of MyHC+, polynucleated myotubes: increased
  generation of proliferative cells: did not generate any proliferative cells
